This passage reports binding results from paper doi:10.1101/2024.07.16.603632.

No constants are given. Whether binding was seen depends on the method and setting. In cells and extracts the contact can be indirect. Here binding means that the protein was enriched with, or labelled near, the bait; the list need not be complete. Sequences can lack the tags named with a protein.

The experiment concerns the target T1, full-length PTP1B^WT with an N-terminal myc-tag (UniProt P18031).
T1 sequence: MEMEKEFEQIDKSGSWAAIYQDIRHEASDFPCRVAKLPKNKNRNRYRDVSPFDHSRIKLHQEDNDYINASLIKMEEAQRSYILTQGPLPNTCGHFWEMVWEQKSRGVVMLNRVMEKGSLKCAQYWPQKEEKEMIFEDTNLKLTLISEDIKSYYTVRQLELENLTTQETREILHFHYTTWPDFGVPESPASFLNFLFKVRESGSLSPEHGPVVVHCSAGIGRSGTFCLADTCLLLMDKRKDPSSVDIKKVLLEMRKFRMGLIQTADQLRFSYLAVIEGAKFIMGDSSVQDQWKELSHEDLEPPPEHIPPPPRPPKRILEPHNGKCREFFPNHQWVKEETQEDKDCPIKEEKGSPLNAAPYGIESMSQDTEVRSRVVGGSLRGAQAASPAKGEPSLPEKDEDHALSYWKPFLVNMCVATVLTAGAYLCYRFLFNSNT
The experiment can be described thus: affinity purification with mass spectrometry; myc-tagged PTP1B^WT or PTP1B^PRD immunoprecipitated from HEK 293 cell lysates; enriched proteins identified by mass spectrometry proteomics.

B1: TMED10 (protein, UniProt P49755 32-219)
chain: ISFHLPINSRKCLREEIHKDLLVTGAYEISDQSGGAGGLRSHLKITDSAGHILYSKEDATKGKFAFTTEDYDMFEVCFESKGTGRIPDQLVILDMKHGVEAKNYEEIAKVEKLKPLEVELRRLEDLSESIVNDFAYMKKREEEMRDTNESTNTRVLYFSIFSMFCLIGLATWQVFYLRRFFKAKKLIE
As to B1, the binding entry is given as “binds”.

B2: FAF2 (protein, UniProt Q96CS3 1-445)
chain: MAAPEERDLTQEQTEKLLQFQDLTGIESMDQCRHTLEQHNWNIEAAVQDRLNEQEGVPSVFNPPPSRPLQVNTADHRIYSYVVSRPQPRGLLGWGYYLIMLPFRFTYYTILDIFRFALRFIRPDPRSRVTDPVGDIVSFMHSFEEKYGRAHPVFYQGTYSQALNDAKRELRFLLVYLHGDDHQDSDEFCRNTLCAPEVISLINTRMLFWACSTNKPEGYRVSQALRENTYPFLAMIMLKDRRMTVVGRLEGLIQPDDLINQLTFIMDANQTYLVSERLEREERNQTQVLRQQQDEAYLASLRADQEKERKKREERERKRRKEEEVQQQKLAEERRRQNLQEEKERKLECLPPEPSPDDPESVKIIFKLPNDSRVERRFHFSQSLTVIHDFLFSLKESPEKFQIEANFPRRVLPCIPSEEWPNPPTLQEAGLSHTEVLFVQDLTDE
Regarding B2, the binding entry is listed as “binds”.
